{"source": "paper PMC7819943", "about": "“Rice protein-binding microarrays: a tool to detect cis-acting elements near promoter regions in rice”", "note": "The other results are listed elsewhere or left out.", "data": [{"target": "T1, OsSMF1 (Oryza sativa, UniProt Q6ZLB0 1-436)", "T1 sequence": "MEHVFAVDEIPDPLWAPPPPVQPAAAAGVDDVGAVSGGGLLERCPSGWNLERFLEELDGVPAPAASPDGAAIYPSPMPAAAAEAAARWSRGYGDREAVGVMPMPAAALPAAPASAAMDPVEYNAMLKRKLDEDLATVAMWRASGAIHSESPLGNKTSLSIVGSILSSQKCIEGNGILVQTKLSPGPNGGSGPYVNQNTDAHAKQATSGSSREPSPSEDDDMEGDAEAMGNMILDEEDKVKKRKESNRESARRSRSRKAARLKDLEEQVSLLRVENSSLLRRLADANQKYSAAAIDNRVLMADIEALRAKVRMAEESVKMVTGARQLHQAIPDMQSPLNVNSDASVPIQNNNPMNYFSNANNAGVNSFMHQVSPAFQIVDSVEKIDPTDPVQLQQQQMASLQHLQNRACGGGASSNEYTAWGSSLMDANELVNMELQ", "assay": "protein-binding microarray (RPBM); PBS, 2% BSA, 51.3 ng/ul salmon testes DNA, 50 uM zinc acetate, 200 nM TF, 25 C, 1 h; high values mean tight binding", "conditions": "protein: recombinant; tags: N-terminal polyhistidine and DsRed monomer fusion (pET32a); chain copies: 2; label: CyDye5-dUTP incorporated in the synthesized complementary strand; 3' TTTTT single-stranded linker to array surface; dsDNA, one strand shown", "outline": "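A custom Agilent array was converted to double-stranded form by primer extension with Cy5-dUTP and blocked with 2% BSA. Protein at 200 nM in PBS with 2% BSA, salmon testes DNA and 50 µM zinc acetate was applied for 1 h at 25 °C, followed by washing. The proteins were polyhistidine–DsRed N-terminal fusions of transcription factors, expressed in E. coli BL21-CodonPlus and Ni–NTA-purified. The binding signal is per-feature fluorescence intensity (arbitrary units) from an Axon 4000B scanner.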", "values": [{"sequence": "TCGTCACCCCTAACCCTAGGCTGAGTCATCCTCTTATCCGCGGAGTCACCTAGTGCAG", "binding signal": "20300 fluorescence intensity (a.u.)"}, {"sequence": "CGAACGGACAACGGCGCGGCTGACGCGGGTACAGGCGGTGCGGAGTCACCTAGTGCAG", "binding signal": "4880 fluorescence intensity (a.u.)"}, {"sequence": "AGCGTGTCTTCGGAGAGGGTTATGTCAGCACTGGTGGAATCGGAGTCACCTAGTGCAG", "binding signal": "6110 fluorescence intensity (a.u.)"}, {"sequence": "CTCGTCATCGCTACCCCTGGGCTCGTGGCCAGCGGCAATTCGGAGTCACCTAGTGCAG", "binding signal": "3210 fluorescence intensity (a.u.)"}, {"sequence": "GATTGACATTGAAGTGGTTGACTAAGCTAAGGTTTACCACCGGAGTCACCTAGTGCAG", "binding signal": "3440 fluorescence intensity (a.u.)"}, {"sequence": "GCTTCCACGTCTCCCTCCTTATCTGTGACCCACTCCGTCGCGGAGTCACCTAGTGCAG", "binding signal": "5200 fluorescence intensity (a.u.)"}, {"sequence": "TATTCTAGTAATGATGTTGACATGTCAGTTCCATGTCCCACGGAGTCACCTAGTGCAG", "binding signal": "4410 fluorescence intensity (a.u.)"}, {"sequence": "AATAATCTTTACACGCGTGGCATATAGCATGTTCTTGCAACGGAGTCACCTAGTGCAG", "binding signal": "5330 fluorescence intensity (a.u.)"}, {"sequence": "ATTTGGAGCGGTTTTGGATCCACGTGGCAGTCCAATCAGCCGGAGTCACCTAGTGCAG", "binding signal": "12500 fluorescence intensity (a.u.)"}, {"sequence": "GGTTCCATGCCTCGCCGTTTATCTATCTAATTTACTAGCACGGAGTCACCTAGTGCAG", "binding signal": "3170 fluorescence intensity (a.u.)"}, {"sequence": "TGTGTCACCGTCAGACCCGCCGTCCCTGACGTTGCACCTTCGGAGTCACCTAGTGCAG", "binding signal": "7680 fluorescence intensity (a.u.)"}, {"sequence": "ACCGTGCTCCGGCGCGGGCACCGCGTGGCATAGGCGCATGCGGAGTCACCTAGTGCAG", "binding signal": "4780 fluorescence intensity (a.u.)"}, {"sequence": "GCCATAGGCCTTACTCGCTGACTCAGCTGCATGGACCAAGCGGAGTCACCTAGTGCAG", "binding signal": "11400 fluorescence intensity (a.u.)"}, {"sequence": "TTTGCTTTTGTGATTTCCTTGTGAGATTACAGAAGCGGCGCGGAGTCACCTAGTGCAG", "binding signal": "4880 fluorescence intensity (a.u.)"}, {"sequence": "GTGGGTGGTGGCGGCGGCGGCGGCGGCGAGGGTTTCTGGGCGGAGTCACCTAGTGCAG", "binding signal": "26000 fluorescence intensity (a.u.)"}, {"sequence": "CTGTTACTACGATTCTGGACAGCAAATAATGTCACATCCTCGGAGTCACCTAGTGCAG", "binding signal": "3320 fluorescence intensity (a.u.)"}, {"sequence": "GCAGGGTTGTGATGCTAGTTTGGTGAGTGCTCAATTTATGCGGAGTCACCTAGTGCAG", "binding signal": "3400 fluorescence intensity (a.u.)"}, {"sequence": "AGATGGTGTGGACGTTGCCTCGTCACCCTCCCGCTCTGCACGGAGTCACCTAGTGCAG", "binding signal": "11000 fluorescence intensity (a.u.)"}, {"sequence": "ACGGACCAAAGTGCCTCGTCAGAGATAACCTCATCTGTGACGGAGTCACCTAGTGCAG", "binding signal": "5810 fluorescence intensity (a.u.)"}, {"sequence": "GTAGCAAAGTTACGAGCGTGCAGTTACATCCTATCCGCTGCGGAGTCACCTAGTGCAG", "binding signal": "4150 fluorescence intensity (a.u.)"}, {"sequence": "TAGAATCTATATATTTAATGTCACGTAGCGTAAGGGTTTTCGGAGTCACCTAGTGCAG", "binding signal": "3240 fluorescence intensity (a.u.)"}, {"sequence": "TCACGAATACGATGATTACGTAGCAAGTCGAGTACCAGAGCGGAGTCACCTAGTGCAG", "binding signal": "3160 fluorescence intensity (a.u.)"}, {"sequence": "ATTTTCTTACTCCTAAAACAAATGACACGTCACGCGTCACCGGAGTCACCTAGTGCAG", "binding signal": "29100 fluorescence intensity (a.u.)"}, {"sequence": "GACACAAACTGACGTCGCCTTCATCGTCCTCCTCCTCCGCCGGAGTCACCTAGTGCAG", "binding signal": "3570 fluorescence intensity (a.u.)"}, {"sequence": "CTTGCCCAGCCACTGGTGGGCCCACCGGCCACCTCATTTCCGGAGTCACCTAGTGCAG", "binding signal": "3390 fluorescence intensity (a.u.)"}, {"sequence": "GCGCCACCTATAAAACGCCCGCGCGCCCCGCGCCGCCTCCCGGAGTCACCTAGTGCAG", "binding signal": "40300 fluorescence intensity (a.u.)"}, {"sequence": "CAAGTAATTAATCAACACATCAGCAGGCTAGCTCCTGTAACGGAGTCACCTAGTGCAG", "binding signal": "3680 fluorescence intensity (a.u.)"}, {"sequence": "AAATCCACATTCTCTGGTCCCACACCTGTCACCGTCCCATCGGAGTCACCTAGTGCAG", "binding signal": "4080 fluorescence intensity (a.u.)"}, {"sequence": "GCATCCGCATCCGCATCCGGGCCAGCGACGCCGGCGGAAGCGGAGTCACCTAGTGCAG", "binding signal": "29300 fluorescence intensity (a.u.)"}, {"sequence": "ATGTTTATTACTCTTAGTATCTCTTGTAGTTAAGTTATAGCGGAGTCACCTAGTGCAG", "binding signal": "3180 fluorescence intensity (a.u.)"}, {"sequence": "TTGTGTTTGTGTGTGTGTTTGTGCTGATTTGGGCATTGGTCGGAGTCACCTAGTGCAG", "binding signal": "3400 fluorescence intensity (a.u.)"}, {"sequence": "TGGCATGGCCTCTCGCCGCGGCGCTTGACTCATCACGATTCGGAGTCACCTAGTGCAG", "binding signal": "7300 fluorescence intensity (a.u.)"}, {"sequence": "TATTGTAACTCCACGTAGTGTTACAACCACAGTGACAGCTCGGAGTCACCTAGTGCAG", "binding signal": "4030 fluorescence intensity (a.u.)"}, {"sequence": "ACGTTCCATCCACCACTGCCCTTTTGGGCAGCACGAACAACGGAGTCACCTAGTGCAG", "binding signal": "3870 fluorescence intensity (a.u.)"}, {"sequence": "GACGTTTAGGGTGAAAGAAATGATGTGGATTTCTTTTACTCGGAGTCACCTAGTGCAG", "binding signal": "5840 fluorescence intensity (a.u.)"}, {"sequence": "GATGCGCGTGAGGAGGCAGTGAGGTGGATGGTGGAGGCGGCGGAGTCACCTAGTGCAG", "binding signal": "4160 fluorescence intensity (a.u.)"}, {"sequence": "GGCCCATGCGACGCCACGCCAGGTCCCGCTCATCTCTTCACGGAGTCACCTAGTGCAG", "binding signal": "4310 fluorescence intensity (a.u.)"}, {"sequence": "AGAAATGTCATCGTACAAGTGCTTTTGTTCTAGAGTTACCCGGAGTCACCTAGTGCAG", "binding signal": "3790 fluorescence intensity (a.u.)"}, {"sequence": "CCTGTATACTACGCGTAGGCAATCATGCCGCGCCTGTACACGGAGTCACCTAGTGCAG", "binding signal": "3430 fluorescence intensity (a.u.)"}, {"sequence": "ACCCCTCGACAGCGAGGCGTTGCGTGTCCCATCTCACCCTCGGAGTCACCTAGTGCAG", "binding signal": "5260 fluorescence intensity (a.u.)"}, {"sequence": "CTACATAAGGTGCCGAGGCAGTGACACCACCACCCCACCCCGGAGTCACCTAGTGCAG", "binding signal": "3340 fluorescence intensity (a.u.)"}, {"sequence": "AAACGTTTCAAAGATATCATGCCAGGTCAGACACCCGAATCGGAGTCACCTAGTGCAG", "binding signal": "10600 fluorescence intensity (a.u.)"}, {"sequence": "CGCCCGTTGTATTGCAGCCGTGGACTGGACACGCTGGAGGCGGAGTCACCTAGTGCAG", "binding signal": "3440 fluorescence intensity (a.u.)"}, {"sequence": "TTAAATGTTAAGCCTAATTACGTCATGGTTTGACAACGTTCGGAGTCACCTAGTGCAG", "binding signal": "4460 fluorescence intensity (a.u.)"}, {"sequence": "TACGTTGAATATTACCCTCTTGATGACTTGACTAATTTTACGGAGTCACCTAGTGCAG", "binding signal": "3880 fluorescence intensity (a.u.)"}, {"sequence": "TCTCTCTCTCTCTCTCTCTCTCTCTCTCTCTCTCTCCGGCCGGAGTCACCTAGTGCAG", "binding signal": "5410 fluorescence intensity (a.u.)"}, {"sequence": "CACTGGATTTTCCATGTCACCTATTTTAATCTTAGGAGCACGGAGTCACCTAGTGCAG", "binding signal": "4680 fluorescence intensity (a.u.)"}, {"sequence": "CTGTGATGAGTTTGCTGTGTTGTCATCTTCTGTTAGTGGACGGAGTCACCTAGTGCAG", "binding signal": "5360 fluorescence intensity (a.u.)"}, {"sequence": "GTACAATTAAACAGCCGTCGTGTCGGCACAGGTAGCTCGCCGGAGTCACCTAGTGCAG", "binding signal": "4430 fluorescence intensity (a.u.)"}, {"sequence": "TAAGTCAACCTAGTCGTGGTGAGCACGTGGTATTGTTTTCCGGAGTCACCTAGTGCAG", "binding signal": "4220 fluorescence intensity (a.u.)"}, {"sequence": "GTCGACCCACCGTCTGCCACGTCAGCTTGCCGCCCACCATCGGAGTCACCTAGTGCAG", "binding signal": "35900 fluorescence intensity (a.u.)"}, {"sequence": "TATCAGATTGCAACAACGGATCACATATGCACATCCCCTTCGGAGTCACCTAGTGCAG", "binding signal": "25300 fluorescence intensity (a.u.)"}, {"sequence": "CGTACTCATCTCCTACACATCATCTCCAATTAATCTAATTCGGAGTCACCTAGTGCAG", "binding signal": "3180 fluorescence intensity (a.u.)"}, {"sequence": "GGCGGAAATATACTATAGTATGACCTGGTATGTTTATTTTCGGAGTCACCTAGTGCAG", "binding signal": "3520 fluorescence intensity (a.u.)"}]}]}
